Laboratory results: US11180509B2, “Thiazolidone spiro pyrimidine trione compound, preparation method therefor and uses thereof” (SHANGHAI INSTITUTE OF MATERIA MEDICA, CHINESE ACADEMY OF …, priority 2017, dated 2021)
Some of these results come from one statement about several compounds together. Some ranges recur; such a range may be that of the whole group of compounds.

tested on: MRSA, MSSA, MRSE, MSSE, PRSP, and Spy; test: In vitro antibacterial activity over the whole strain panel, compared with AZD0914; assay type: cell-based; conditions: against MRSA
Excerpt: The following strains isolated in clinic were used in antibacterial activity screening in vitro: five strains of methicillin-resistant Staphylococcus aureus or MRSA, five strains of methicillin-sensitive Staphylococcus aureus or MSSA, five strains of methicillin-resistant Staphylococcus epidermidis or MRSE, five strains of methicillin-sensitive Staphylococcus epidermidis or MSSE, three strains of penicillin-resistant Streptococcus pneumoniae or PRSP, and three strains of Streptococcus pyogenes.
The above strains were clinically isolated pathogenic bacteria collected in Sichuan and Beijing in December 2015. They were identified by the collection unit via a VITEK-60 automatic microbiological identification instrument, and then re-identified by conventional methods in the laboratory. Before the experiment, each strain was purified by a single colony on an agar plate, and the cells freshly cultured at 37° C. overnight were appropriately diluted for the experiment. Quality control strain was Staphylococcus aureus ATCC25923 purchased from the Clinical Testing Center of the Ministry of Health of the People's Republic of China.
The MIC value of each test sample for the tested strain was determined by micro broth dilution method recommended by Performance Standards for Antimicrobial Susceptibility Testing (Twenty-Third Informational Supplement; M02-A11, M07-A9 and M11-A8, 2013) of American Clinical and Laboratory Standards Institute (CLSI).
After diluting each test sample to different concentrations in MH broth, 100 μl of each sample solution at different concentrations was pipetted into a sterilized 96-well polystyrene plate. In the first to twelfth wells, the drug solution was added, and the final drug concentrations in each well were 64, 32, 16, 8, 4, 2, 1, 0.5, 0.25, 0.125, 0.06, and 0.03 mg/L. The well without drug and without bacteria was set as blank control well. The well with bacteria and without drug was set as a bacterial growth control well.
The test bacterial solution was adjusted with physiological saline to a bacterial suspension equivalent to 0.5 Maisson turbidity standard, and diluted 1:100 with MH broth. The drug solution was added so that the final concentration of the bacterial solution was about 10^4 CFU/ml; then 100 μl of bacterial solution was pipetted into the above wells (the total volume in each well was 200 μl). The plate was sealed and placed in a 35-37° C. incubator for 18-20 h, and then the results were determined. […] When Streptococcus pneumoniae was tested, sterile defibrillated sheep blood was added into the Colombian broth culture medium at a final concentration of 5% and cultivation was conducted in a 5% CO2 and 35-37° C. incubator for 18-20 hours.

SMILES | in vitro antibacterial activity relative to AZD0914
C[C@@H]1CN2c3c(cc4c(N5C(=O)S[C@@H]6CCC[C@@H]65)noc4c3F)CC3(C(=O)NC(=O)NC3=O)[C@H]2[C@H](C)O1 [Compound 21, (2R,4S,4aS)-11-fluoro-2,4-dimethyl-8-((3aS,6aR)-2-oxotetrahydro-2H-cyclopentane[d]thiazol-3(3aH)-yl)-1,2,4,4a-tetrahydro-2′H,6H-spiro[isoxazole[4,5-g][1,4]oxazine [4,3-a]quinoline-5,5′-pyrimidine]-2′,4′,6′(1′H,3′H)-trione] | 2-4 times
C[C@@H]1CN2c3c(cc4c(N5C[C@H](CN=[N+]=[N-])SC5=O)noc4c3F)CC3(C(=O)NC(=O)NC3=O)[C@H]2[C@H](C)O1 [Compound 10, (2R,4S,4aS)-8-((R)-5-(azidomethyl)-2-oxothiazol-3-yl)-11-fluoro-2,4-dimethyl-1,2,4,4a-tetrahydro-2′H,6H-spiro[isoxazole[4,5-g][1,4]oxazine[4,3-a]quinoline-5,5′-pyrimidine]-2′,4′,6′(1′H,3′H)-trione] | 2-4 times
C[C@@H]1CN2c3c(cc4c(N5C[C@H](CF)SC5=O)noc4c3F)CC3(C(=O)NC(=O)NC3=O)[C@H]2[C@H](C)O1 [Compound 6] | 2-4 times
COC[C@H]1CN(c2noc3c(F)c4c(cc23)CC2(C(=O)NC(=O)NC2=O)[C@H]2[C@H](C)O[C@H](C)CN42)C(=O)S1 [Compound 8, (2R,4S,4aS)-11-fluoro-8-((R)-5-(methoxymethyl)-2-oxothiazolin-3-yl)-2,4-dimethyl-1,2,4,4a-tetrahydro-2′H,6H-spiro[isoxazole[4,5-g][1,4]oxazine[4,3-a]quinoline-5,5′-pyrimidine]-2′,4′,6′(1′H,3′H)-trione] | 2-4 times
